Measured values as given in patent US20260209347A1 (BIORAY PHARMACEUTICAL, published 2026).
Residue numbers refer to the chain shown, from its start. Results are given in words; binding and its absence hold for the method and conditions named. Some binding calls cover weakened binding; strength is not graded here.

By UniProt entry, the sequences of proteins in these tests, tags left out. Where a name states a change or a piece, a line headed by the entry shows the natural chain unless it says otherwise.
UniProt P26715: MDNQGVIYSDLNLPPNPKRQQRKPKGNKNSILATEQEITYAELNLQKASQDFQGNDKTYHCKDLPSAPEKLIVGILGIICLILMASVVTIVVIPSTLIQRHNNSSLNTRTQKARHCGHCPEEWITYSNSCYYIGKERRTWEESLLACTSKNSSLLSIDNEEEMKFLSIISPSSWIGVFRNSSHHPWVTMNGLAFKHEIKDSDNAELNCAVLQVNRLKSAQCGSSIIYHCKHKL
UniProt Q13241: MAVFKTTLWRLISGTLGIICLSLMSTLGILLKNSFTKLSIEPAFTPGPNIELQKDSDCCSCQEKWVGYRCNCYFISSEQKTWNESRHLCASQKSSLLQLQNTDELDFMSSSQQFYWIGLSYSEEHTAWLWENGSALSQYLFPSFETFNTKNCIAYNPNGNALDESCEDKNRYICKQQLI

B1: cAb-9 (antibody, human IgG4 S228P, kappa, V domains shown)
VH: EVQLQQSVAELVRPGASVKLSCTASGFNIQNTYMHWVKERPEQGLEWIGRIDPANGDTEFAPKFQGKATLTTDTSSNTAYLQLSSLTSEDTAIYYCGRERYFYGSRGFAYWGQGTLVTVSA
VL: DILMTQSPPSMSVSLGDTVSITCHASQGISSNIGWLQQKPGKSFKGLIYHGTNLEDGVPSRFSGSGSGADYSLTISSLESEDFADYYCVQYAQFPWTFGGGTKLEIKR
notes: human-mouse chimeric antibody, human IgG4 constant region; also called antibody number 9; NKG2A chimeric antibody
B2: cAb-14 (antibody, human IgG4 S228P, kappa, V domains shown)
VH: EVQLQQSVAELVRPGASVKLSCTASGFNIKNTYIHWVKQRPEQGLEWIGRIDPANGNTKYAPKFQGKASIIVDTSSNTAYLQLSSLTSEDTAIYYCARYYASSPYYYNMDYWGQGTSVTVSS
VL: DIQMTQSPASLSVSVGETVTITCRASENIYSNLAWYQQKQGKSPQLLVYAATNLADGVPSRFSGSGSGTQYSLKINSLQSEDFGSYYCQHFWGTFTFGSGTKLEIKR
notes: human-mouse chimeric antibody, human IgG4 constant region; also called antibody number 14; NKG2A chimeric antibody
B3: cAb-17 (antibody, human IgG4 S228P, kappa, V domains shown)
VH: EVQLQQSVAELVRPGASVKLSCTASGFNIKNTYIDWVKQRPEQGLEWIGNIDPANGNTKYAPKFQGKATITADTSSNTAYVQLSSLTSEDTAIYYCARWGGWDVRFAYWGQGTLVTVSA
VL: DIKMTQSPSSMYASLGERVTITCKASQDINTYLSWFQQKPGKSPKTLIYRANRLVDGVPSRFSGSGSGQNYSLTISSLEYEDMGIYYCLQYDEFPLTFGAGTKLELKR
notes: human-mouse chimeric antibody, human IgG4 constant region; also called antibody number 17; NKG2A chimeric antibody
B4: cAb-35 (antibody, human IgG4 S228P, kappa, V domains shown)
VH: B3 VH with I34M, N50R, Y60H, A72T, V81L
VL: B3 VL with T22N, K24Q, T31S, Y49H, N70D, Y91F
notes: human-mouse chimeric antibody, human IgG4 constant region; also called antibody number 35; NKG2A chimeric antibody
B5: cAb-24 (antibody, human IgG4 S228P, kappa, V domains shown)
VH: EVQLQQSVAELVRPGASVKLSCTASGFNIQNTYMHWVKQRPEQGLEWIGRIDPANGNTKYAPKFQGKATITADTSSNTAYLQLSSLTSEDTAIYYCARYYDSRYGYWGQGTTLTVSS
VL: B3 VL with T31S, K45T, N70D, M83L, Y87F, L96W, A100G, L106I
notes: human-mouse chimeric antibody, human IgG4 constant region; also called antibody number 24; NKG2A chimeric antibody
B6: cAb-33 (antibody, human IgG4 S228P, kappa, V domains shown)
VH: B3 VH with I34M, N50R, V81L, W99E, G101N, V104D, R105W, A107V
VL: DVLMTQTPLSLPVSLGDQASISCRSSQSIVHSNGNTYLEWFLQKPGQSPKLLIYKVSNRFSGVPDRFSGSGSGTDFTLKISRVEAEDLGVYYCFQGSHVPPTFGGGTKLEIKR
notes: human-mouse chimeric antibody, human IgG4 constant region; also called antibody number 33; NKG2A chimeric antibody
B7: cAb-43 (antibody, human IgG4 S228P, kappa, V domains shown)
VH: EVQLQQSVAELVRPGASVKLSCTASGFNIQNTYIHWVKQRPEQGLEWIGRIDPASGSTEYAPKFQGKATITADTSSNSGYLQLSSLTSEDTAIYYCARYGNFLYYYSMDYWGQGTSVTVSA
VL: DIVMTQAAPSVPVTPGESVSISCRSNKSLLHSNGNTYLYWFLQRPGQSPQLLIYRMSNLASGVPDRFSGSGSGTAFTLRISRVEAEDVGVYYCMQHLENPYTFGGGTKLEIKR
notes: human-mouse chimeric antibody, human IgG4 constant region; also called antibody number 43; NKG2A chimeric antibody
B8: cAb-52 (antibody, human IgG4 S228P, kappa, V domains shown)
VH: EVQLQQSVAELVRPGASVKLSCTASGFNIQNTYLHWVKQRPEQGLEWIGRIDPANDNIKYVPKFQGKATITADTSSNTAYLQLSSLTSEDTAIYYCTRHGLFYEGWFAYWGQGTLVTVST
VL: EIVLTQSPALMAASPGEKVTITCSVSSSISSSNLHWYQQKSGTSPKPWIYGTSNLASGVPVRFSGSGSGTSYSLTISSMEAEDAATYYCQQWSSYPYTFGSGTKLEIKR
notes: human-mouse chimeric antibody, human IgG4 constant region; also called antibody number 52; NKG2A chimeric antibody
B9: hu-52VH-13/VL-11 (antibody, human IgG4 S228P, kappa, V domains shown)
VH: QVQLVQSGAEVKKPGASVKVSCKASGFNIQNTYLHWVRQAPGQGLEWMGRIDPANDNIKYVPKFQGRVTMTADTSTNTAYMELSSLRSEDTAVYYCTRHGLFYEGWFAYWGQGTLVTVSS
VL: DIQLTQSPSSLSASVGDRVTITCSVSSSISSSNLHWYQQKPGKAPKPLIYGTSNLASGVPSRFSGSGSGTDYTLTISSLQPEDAATYYCQQWSSYPYTFGQGTKLEIKR
notes: full-length humanized antibody; also called hu-52 humanized antibody
B10: hu-52VH-13/VL-21 (antibody, human IgG4 S228P, kappa, V domains shown)
VH: B9 VH
VL: B9 VL with S10T, D71E, E82D
notes: as for B9
B11: hu-52VH-23/VL-11 (antibody, human IgG4 S228P, kappa, V domains shown)
VH: B9 VH with T76I, S85R, E89D
VL: B9 VL
notes: as for B9
B12: hu-52VH-23/VL-21 (antibody, human IgG4 S228P, kappa, V domains shown)
VH: B9 VH with T76I, S85R, E89D
VL: B9 VL with S10T, D71E, E82D
notes: as for B9
B13: hu-52VH-33/VL-21 (antibody, human IgG4 S228P, kappa, V domains shown)
VH: B9 VH with A16S, M70I
VL: B9 VL with S10T, D71E, E82D
notes: as for B9
B14: hu-52VH-13/VL-31 (antibody, human IgG4 S228P, kappa, V domains shown)
VH: B9 VH
VL: EIVLTQSPATLSLSPGERATLSCSVSSSISSSNLHWYQQKPGQAPRPLIYGTSNLASGIPARFSGSGSGTDYTLTISSLEPEDAAVYYCQQWSSYPYTFGQGTKLEIKR
notes: as for B9
B15: hu-52VH-23/VL-31 (antibody, human IgG4 S228P, kappa, V domains shown)
VH: B9 VH with T76I, S85R, E89D
VL: B14 VL
notes: as for B9

Assays:
[1] = biological target: T1, cyno NKG2A/CD94 on cells (CHOK1-cynoNKG2A/CD94) (cyno (Macaca fascicularis)) (UniProt Q68VD2+Q68VD4); experiment: FACS on CHOK1-cynoNKG2A/CD94 cells
[2] = biological target: T1, cyno NKG2A/CD94 on cells (CHOK1-cynoNKG2A/CD94) (cyno (Macaca fascicularis)); experiment: FACS on cyno NKG2A overexpressing cells
[3] = biological target: human NKG2A/CD94 on cells (CHOK1-hNKG2A/CD94) (human) (UniProt P26715+Q13241); experiment: FACS on human NKG2A overexpressing cell line

Binder | binding [1] | binding [2] | binding [3]
B1 | binds | – | –
B2 | binds | – | –
B3 | binds | – | –
B4 | binds | – | –
B5 | binds | – | –
B6 | binds | – | –
B7 | binds | binds | –
B8 | binds | – | –
B9 | – | – | binds
B10 | – | – | binds
B11 | – | – | binds
B12 | – | – | binds
B13 | – | – | binds
B14 | – | – | binds
B15 | – | – | binds
